Source: patent US10654845B2, “2-(het)aryl-substituted fused bicyclic heterocycle derivatives as pesticides” (BAYER CROPSCIENCE AKTIENGESELLSCHAFT, priority 2015, dated 2020)

Experiment: log P by HPLC on reversed-phase column (C18), EEC Directive 79/831 Annex V.A8
From the text: Called log P (HCOOH) in the table.
Called log P (neutral) in the table.

For `CCS(=O)(=O)c1ccc([S+](C)[O-])nc1-c1nc2cc(C(F)(F)F)ncc2n1C` (centres unmarked) [Example 44], the logP-acidic (LC-MS acidic range, pH 2.7 (HCOOH), C18, 55° C.) was 1.81 and the logP-neutral (LC-MS neutral range, pH 7.8, C18, 55° C.) was 1.81.
